Here are results for one molecule from paper doi:10.1101/2020.05.08.084087 (bioRxiv, 2020).

Amino acid sequences for entries named in this document (tags omitted). A change or cut given only in a name is not applied to a line headed by its entry.
UniProt Q9C7F2: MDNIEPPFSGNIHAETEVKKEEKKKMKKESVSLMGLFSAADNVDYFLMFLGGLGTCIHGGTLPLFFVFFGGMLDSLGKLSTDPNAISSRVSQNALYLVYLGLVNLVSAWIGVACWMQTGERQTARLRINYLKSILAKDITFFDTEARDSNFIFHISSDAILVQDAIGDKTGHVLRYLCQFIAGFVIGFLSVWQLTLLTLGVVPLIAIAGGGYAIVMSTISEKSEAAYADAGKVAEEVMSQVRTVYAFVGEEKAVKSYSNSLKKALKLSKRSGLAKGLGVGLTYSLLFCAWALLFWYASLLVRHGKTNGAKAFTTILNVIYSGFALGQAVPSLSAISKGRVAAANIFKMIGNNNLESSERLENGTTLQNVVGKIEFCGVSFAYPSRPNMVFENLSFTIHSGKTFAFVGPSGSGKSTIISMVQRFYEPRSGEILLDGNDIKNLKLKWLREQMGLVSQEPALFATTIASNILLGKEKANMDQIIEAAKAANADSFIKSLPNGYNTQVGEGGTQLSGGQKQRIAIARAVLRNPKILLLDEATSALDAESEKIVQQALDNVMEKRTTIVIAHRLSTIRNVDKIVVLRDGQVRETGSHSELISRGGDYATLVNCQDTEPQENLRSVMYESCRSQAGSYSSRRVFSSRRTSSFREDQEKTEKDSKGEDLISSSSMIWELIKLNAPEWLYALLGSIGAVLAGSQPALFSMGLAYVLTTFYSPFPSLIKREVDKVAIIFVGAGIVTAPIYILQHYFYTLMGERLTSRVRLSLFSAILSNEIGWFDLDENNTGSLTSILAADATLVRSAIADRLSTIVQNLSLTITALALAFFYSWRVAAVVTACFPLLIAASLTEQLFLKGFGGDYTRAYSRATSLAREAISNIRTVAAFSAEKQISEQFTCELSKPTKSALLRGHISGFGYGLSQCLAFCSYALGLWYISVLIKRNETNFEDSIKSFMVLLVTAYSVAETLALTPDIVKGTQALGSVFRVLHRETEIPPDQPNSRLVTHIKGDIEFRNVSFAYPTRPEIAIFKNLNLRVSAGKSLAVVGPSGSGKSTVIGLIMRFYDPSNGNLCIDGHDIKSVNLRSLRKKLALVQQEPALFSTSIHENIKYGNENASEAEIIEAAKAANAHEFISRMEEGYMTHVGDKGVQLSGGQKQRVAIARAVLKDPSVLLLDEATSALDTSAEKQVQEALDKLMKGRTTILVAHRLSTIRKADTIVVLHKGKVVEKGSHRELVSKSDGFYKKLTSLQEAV

No constants are given. Whether binding was seen depends on the method and setting. Binding seen in cells or lysates may run through a third protein. Some entries that bind do so weakly or less than the wild type. Tags and fused reporters may be left off the sequences shown.

Test [1] deals with ABCB14-GFP (Arabidopsis) (UniProt Q9C7F2). Description: FRET or BRET. For orientation: Bioluminescence resonance energy transfer reports proximity on the nanometre scale.
The target in another test is T1, AUX1-YFP (Arabidopsis) (UniProt Q96247).
T1 sequence: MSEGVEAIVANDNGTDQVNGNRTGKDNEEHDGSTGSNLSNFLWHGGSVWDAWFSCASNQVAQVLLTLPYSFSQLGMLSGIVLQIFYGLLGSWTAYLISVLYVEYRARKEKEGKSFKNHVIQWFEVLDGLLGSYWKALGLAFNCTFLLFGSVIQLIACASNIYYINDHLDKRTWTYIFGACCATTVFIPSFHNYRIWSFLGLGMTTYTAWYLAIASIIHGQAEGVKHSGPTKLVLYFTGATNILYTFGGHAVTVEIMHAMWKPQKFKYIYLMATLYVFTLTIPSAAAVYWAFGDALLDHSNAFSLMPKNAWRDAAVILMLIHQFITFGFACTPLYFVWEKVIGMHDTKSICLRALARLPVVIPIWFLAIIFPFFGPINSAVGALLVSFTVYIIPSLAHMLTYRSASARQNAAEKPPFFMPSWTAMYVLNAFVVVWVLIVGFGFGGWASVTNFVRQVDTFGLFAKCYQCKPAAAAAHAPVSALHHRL
Kind of test: FRET or BRET.

Test [2] addresses ABCB14-GFP P990E (Arabidopsis) (UniProt Q9C7F2). Description: FRET or BRET.
The next test addresses T2, ABCB4-YFP (Arabidopsis) (UniProt O80725).
T2 sequence: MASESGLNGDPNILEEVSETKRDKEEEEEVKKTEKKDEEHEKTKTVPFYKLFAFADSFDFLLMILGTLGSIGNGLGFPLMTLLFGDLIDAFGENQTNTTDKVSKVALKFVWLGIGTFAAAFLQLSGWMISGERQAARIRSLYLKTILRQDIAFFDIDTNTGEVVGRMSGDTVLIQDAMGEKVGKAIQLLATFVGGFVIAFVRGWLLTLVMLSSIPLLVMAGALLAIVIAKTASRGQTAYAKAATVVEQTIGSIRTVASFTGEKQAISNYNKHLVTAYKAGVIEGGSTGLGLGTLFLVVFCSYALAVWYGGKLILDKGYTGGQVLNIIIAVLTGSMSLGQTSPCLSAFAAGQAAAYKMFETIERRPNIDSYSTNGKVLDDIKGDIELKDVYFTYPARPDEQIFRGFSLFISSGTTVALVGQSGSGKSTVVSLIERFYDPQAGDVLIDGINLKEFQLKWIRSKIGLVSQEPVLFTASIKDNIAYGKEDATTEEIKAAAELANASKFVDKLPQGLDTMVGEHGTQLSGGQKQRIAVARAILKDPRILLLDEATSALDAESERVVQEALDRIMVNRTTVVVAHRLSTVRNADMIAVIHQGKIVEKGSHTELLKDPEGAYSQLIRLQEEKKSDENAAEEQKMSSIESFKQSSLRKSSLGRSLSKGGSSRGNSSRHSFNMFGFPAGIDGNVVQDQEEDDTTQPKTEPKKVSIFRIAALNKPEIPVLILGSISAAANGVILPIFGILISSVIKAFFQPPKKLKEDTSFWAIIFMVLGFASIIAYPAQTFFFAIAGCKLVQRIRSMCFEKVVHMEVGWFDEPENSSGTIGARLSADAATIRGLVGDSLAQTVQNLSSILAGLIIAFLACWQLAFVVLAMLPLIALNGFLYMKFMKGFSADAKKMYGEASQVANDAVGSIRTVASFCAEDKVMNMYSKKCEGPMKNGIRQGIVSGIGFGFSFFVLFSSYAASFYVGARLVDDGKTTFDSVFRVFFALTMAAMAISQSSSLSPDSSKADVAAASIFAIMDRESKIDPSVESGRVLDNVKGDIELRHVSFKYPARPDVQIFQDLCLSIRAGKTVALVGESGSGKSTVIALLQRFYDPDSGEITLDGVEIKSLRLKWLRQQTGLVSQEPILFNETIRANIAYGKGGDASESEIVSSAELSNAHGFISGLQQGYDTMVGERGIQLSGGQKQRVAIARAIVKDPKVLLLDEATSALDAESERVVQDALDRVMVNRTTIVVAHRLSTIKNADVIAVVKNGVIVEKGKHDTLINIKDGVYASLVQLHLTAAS
Kind of test: FRET or BRET.

Test [3] concerns the target ABCB14-GFP (Arabidopsis) (UniProt Q9C7F2). Kind of test: co-IP.
Test [4] addresses ABCB14-GFP P990E (Arabidopsis) (UniProt Q9C7F2). Kind of test: co-IP.

B1: TWD1-Rluc (natural protein)
chain: MDESLEHQTQTHDQESEIVTEGSAVVHSEPSQEGNVPPKVDSEAEVLDEKVSKQIIKEGHGSKPSKYSTCFLHYRAWTKNSQHKFEDTWHEQQPIELVLGKEKKELAGLAIGVASMKSGERALVHVGWELAYGKEGNFSFPNVPPMADLLYEVEVIGFDETKEGKARSDMTVEERIGAADRRKMDGNSLFKEEKLEEAMQQYEMAIAYMGDDFMFQLYGKYQDMALAVKNPCHLNIAACLIKLKRYDEAIGHCNIVLTEEEKNPKALFRRGKAKAELGQMDSARDDFRKAQKYAPDDKAIRRELRALAEQEKALYQKQKEMYKGIFKGKDEGGAKSKSLFWLIVLWQWFVSLFSRIFRRHRVKAD
On to B1, for which the binding entry is on record as “no binding” with ABCB14-GFP (Arabidopsis) [1]; “no binding” in the test with AUX1-YFP (Arabidopsis); “no binding” in test [2]; “binds” with ABCB4-YFP (Arabidopsis); “no binding” with ABCB14-GFP (Arabidopsis) [3]; “no binding” in test [4].
